From the supplement of paper PMC3334620
Over roughly 33,000 sequences, “E-score (-0.5 to 0.5)” has its median near -0.0059; the highest 2% begin near 0.26. This is one part of the list.

Target: T1, Cin5 (UniProt P40917)
T1 sequence: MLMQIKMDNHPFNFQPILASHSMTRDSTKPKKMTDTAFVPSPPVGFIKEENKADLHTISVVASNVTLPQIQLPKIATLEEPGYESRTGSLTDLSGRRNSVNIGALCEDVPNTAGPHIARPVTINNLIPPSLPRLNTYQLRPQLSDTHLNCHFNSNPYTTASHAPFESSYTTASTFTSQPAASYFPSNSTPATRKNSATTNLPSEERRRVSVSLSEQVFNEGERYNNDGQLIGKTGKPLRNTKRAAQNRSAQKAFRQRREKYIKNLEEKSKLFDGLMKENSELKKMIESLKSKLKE
Experiment: PBM E-score (8-mer binding enrichment) (E-score (-0.5 to 0.5)); higher = stronger / more preferred TF binding
Conditions: protein concentration: 100 nM; construct: GST-full length
In short: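 Full-length yeast transcription factors or their DNA-binding domains, GST-tagged and expressed with PURExpress, were applied at about 100-200 nM to universal all-10-mer Agilent arrays. These arrays had been made double-stranded by primer extension on fresh or once-stripped slides. Detection used fluorescent anti-GST, normalisation used masliner, and E-scores for ungapped eight-base words pooled with reverse complements came from the Universal PBM Analysis Suite.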

| Sequence | PBM E-score |
| --- | --- |
| GCGCCGCA | 0.0767 |
| GCGCATAA | 0.187 |
| ATCTCCCA | -0.0117 |
| ATCTTACC | -0.0356 |
| GCATAGGA | 5e-05 |
| ACTAGGTG | -0.15 |
| GTCCGCTA | -0.05 |
| GAAGTGAA | 0.202 |
| AGCGCCCA | -0.243 |
| CCGGTCAG | -0.0737 |
| ATCCGGTC | -0.101 |
| GTCCATAA | -0.0763 |
| AATATCCT | 0.0469 |
| ACTGCAAC | -0.0484 |
| GCCTAGCA | -0.314 |
| CATCTAAA | 0.0623 |
| AAATGCCT | -0.0215 |
| GACATGTA | 0.164 |
| GGGGCAAA | -0.0144 |
| GCCGAAGA | 0.0739 |
| ACCACAAC | 0.148 |
| ATTTAGCG | -0.0297 |

| Sequence | PBM E-score |
| --- | --- |
| ACTGCATA | 0.0427 |
| CCGCCCAG | -0.114 |
| GACTGCTA | -0.114 |
| CTGGGCTC | -0.2 |
| ACTTAACT | 0.175 |
| CAATGGAC | 0.051 |
| CTCGGGCC | -0.103 |
| CCCAGACC | -0.167 |
| CGAGTCCA | -0.183 |
| GAGCGAAA | 0.0812 |
| GACCGTGC | -0.234 |
| CCGTCTCC | -0.165 |
| CAGGAGCG | -0.0881 |
| AAGGGTGA | -0.0502 |
| GTGAGCGA | -0.0285 |
| AGGCTGAA | -0.148 |
| AGAGACCC | -0.137 |
| ACTCGTAT | 0.114 |
| CACACTAA | 0.206 |
| AAGTACGA | 0.202 |
| GGGACGGA | -0.282 |
| CAGGCATA | -0.108 |

Rewritten as tab-separated lines: entries from further up.
Sequence	PBM E-score
GACATGTA	0.164
GGGGCAAA	-0.0144
GCCGAAGA	0.0739
ACCACAAC	0.148
ATTTAGCG	-0.0297
ACTGCATA	0.0427
CCGCCCAG	-0.114
GACTGCTA	-0.114
CTGGGCTC	-0.2
ACTTAACT	0.175
CAATGGAC	0.051
CTCGGGCC	-0.103
CCCAGACC	-0.167
CGAGTCCA	-0.183
GAGCGAAA	0.0812
CCGTCTCC	-0.165
AAGGGTGA	-0.0502
GTGAGCGA	-0.0285
AGAGACCC	-0.137
ACTCGTAT	0.114
CACACTAA	0.206
AAGTACGA	0.202
GGGACGGA	-0.282
CAGGCATA	-0.108

(cont.)

| Sequence | PBM E-score |
| --- | --- |
| GATAGCAC | -0.0042 |
| TCCCACCA | -0.166 |
| CGGAACAG | 0.205 |
| GAAGCCGC | 0.00485 |
| GACTGCTC | -0.083 |
| ATGTATCA | 0.176 |
| AAAATGTT | 0.035 |
| GTAAATCA | 0.284 |
| GCTGGACC | -0.181 |
| GAGTAATC | 0.139 |
| AGAATCAG | 0.17 |
| AGTGCTCC | -0.236 |
| CGAACCAC | -0.0183 |
| AACCGATT | 0.121 |
| AGACTACG | -0.272 |
| GAGGCTCA | -0.263 |
| AAATATAG | 0.224 |
| GCATACAC | -0.0109 |
| CATTTTGA | -0.0425 |
| CGACCCCG | -0.263 |
| CGCTTAAA | 0.117 |
| TAAGGATA | 0.117 |

| Sequence | PBM E-score |
| --- | --- |
| ATTATTCA | 0.262 |
| CTCCCAGC | -0.133 |
| CCTTTATC | -0.176 |
| TAAGTGTA | -0.0251 |
| GCTGGGAA | -0.0863 |
| ATCTCTCA | 0.216 |
| CGTAACGA | 0.00356 |
| CGTTCGCA | -0.084 |
| CCGGGTAG | -0.0422 |
| ACTGCGGC | -0.0794 |
| TTAGCCAA | 0.0774 |
| TAACAGAA | 0.0994 |
| CGCACCCC | -0.0847 |
| CGGTTGCC | -0.0162 |
| TATCTTCA | 0.0305 |
| CGGAATAG | 0.173 |
| GAGAGAAC | -0.0169 |
| CGCAGGGC | -0.0642 |
| ACTGGAAT | 0.122 |
| AATGTTAG | 0.00305 |

A run of entries from further up:

| Sequence | PBM E-score |
| --- | --- |
| CAGGCATA | -0.108 |
| GATAGCAC | -0.0042 |
